This assay addresses LOV-Tb-Miro1-WT, Q8IXI2. The experiment in a line: proximity labelling. The settings on record: remark: other sources report otherwise.

Sequences of proteins named here, by UniProt entry; tags and fusion partners are left off.
UniProt Q8IXI2, whole entry: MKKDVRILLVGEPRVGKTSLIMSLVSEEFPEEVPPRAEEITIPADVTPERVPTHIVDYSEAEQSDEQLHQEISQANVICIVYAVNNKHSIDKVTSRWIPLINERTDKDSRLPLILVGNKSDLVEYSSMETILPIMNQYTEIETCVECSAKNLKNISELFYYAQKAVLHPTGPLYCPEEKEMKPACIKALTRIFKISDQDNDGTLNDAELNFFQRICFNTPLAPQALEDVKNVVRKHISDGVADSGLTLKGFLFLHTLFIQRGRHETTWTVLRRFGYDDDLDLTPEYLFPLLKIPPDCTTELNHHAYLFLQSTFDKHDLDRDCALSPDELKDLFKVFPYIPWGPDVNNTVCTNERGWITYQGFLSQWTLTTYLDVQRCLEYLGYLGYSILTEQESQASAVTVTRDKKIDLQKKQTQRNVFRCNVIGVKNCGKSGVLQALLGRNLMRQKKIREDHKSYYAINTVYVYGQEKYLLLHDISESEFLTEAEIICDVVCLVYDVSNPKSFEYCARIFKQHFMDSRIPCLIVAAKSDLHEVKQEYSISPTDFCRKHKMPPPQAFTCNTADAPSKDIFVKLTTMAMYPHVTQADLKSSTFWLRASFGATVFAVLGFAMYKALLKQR

This is an account of results in doi:10.64898/2025.12.21.693523.

Results are given in words; binding and its absence hold for the method and conditions named. In cells and extracts the contact can be indirect. A yes stands for co-enrichment or nearness to the bait. Other partners may have been found.

B1: MTFR2, Q6P444 1-385 (protein)
chain: MSLILNILREMLEYFGVPVEQVLLIWENKDYGSTRSIVRIIGKMLPLEPCRRPNFELIPLLNSVDSDNCGSMVPSFADILYVANDEEASYLRFRNSIWKNEEEKVEIFHPLRLVRDPLSPAVRQKETVKNDLPVNEAAIRKIAALENELTFLRSQIAAIVEMQELKNSTNSSSFGLSDERISLGQLSSSRAAHLSVDPDQLPGSVLSPPPPPPLPPQFSSLQPPCFPPVQPGSNNICDSDNPATEMSKQNPAANKTNYSHHSKSQRNKDIPNMLDVLKDMNKVKLRAIERSPGGRPIHKRKRQNSHWDPVSLISHALKQKFAFQEDDSFEKENRSWESSPFSSPETSRFGHHISQSEGQRTKEEMVNTKAVDQGISNTSLLNSRI
Turning to B1, the binding entry was “binds”.
